Values of other authors in patent US11434241B2, “Pyrimidine derivatives for prevention and treatment of bacterial infections” (UNIVERSITE DE LIEGE, priority 2018, dated 2022).
pIC50: −log10 of the molar value. Some of these results come from one statement about several compounds together.

Target: T1, S. aureus Murl isozyme (Staphylococcus aureus, UniProt P63638)
T1 sequence (P63638 1-266): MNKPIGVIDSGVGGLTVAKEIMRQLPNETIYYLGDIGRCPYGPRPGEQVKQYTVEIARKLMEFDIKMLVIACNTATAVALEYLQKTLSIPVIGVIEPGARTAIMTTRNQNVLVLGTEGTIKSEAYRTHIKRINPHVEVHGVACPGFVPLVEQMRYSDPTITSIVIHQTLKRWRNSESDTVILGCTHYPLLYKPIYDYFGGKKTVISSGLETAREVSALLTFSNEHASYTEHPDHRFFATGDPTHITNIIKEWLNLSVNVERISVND
Settings: reported in WO2009/034386; cited from earlier work

| Structure (SMILES) | pIC50 |
| --- | --- |
| CCCCSc1nc(N)c2ncn(Cc3c(F)ccc(Cl)c3F)c2n1 [Molecule 36z, 2-(Butylthio)-9-(3-chloro-2,6-difluorobenzyl)-9H-purin-6-amine, reference compound] | < 3.40 |
| CCCCOc1nc(NCc2cccnc2)c2ncn(Cc3c(F)ccc(Cl)c3F)c2n1 [37z″, 2-Butoxy-9-(3-chloro-2,6-difluorobenzyl)-N-(pyridin-3-ylmethyl)-9H-purin-6-amine, reference compound] | < 3.40 |
